Test results: patent publication US6576261B1, “Potentiation of inclusion complex formation of cyclodextrin derivatives” (priority 1999, dated 2003)
Marks after values point to notes of the source that are not given here.

Test: Formation and stabilization of colloidal copper by cyclodextrin derivatives
Format: physicochemical
Settings: cyclodextrin derivative 5%; for Copper in Active Form (%): after exposure to air at room temperature, from absorbance at 570 nm; for Absorbance at 420 nm: colloidal copper after hydrazine hydrate and 25 minutes ultrasound bath

Row | SMILES | Copper in Active Form (%) | Absorbance at 420 nm
1 | COC[C@H]1O[C@@H]2O[C@H]3[C@H](O)[C@@H](OC)[C@@H](O[C@H]4[C@H](O)[C@@H](OC)[C@@H](O[C@H]5[C@H](O)[C@@H](OC)[C@@H](O[C@H]6[C@H](O)[C@@H](OC)[C@@H](O[C@H]7[C@H](O)[C@@H](OC)[C@@H](O[C@H]8[C@H](O)[C@@H](OC)[C@@H](O[C@H]1[C@H](O)[C@H]2OC)O[C@@H]8COC)O[C@@H]7COC)O[C@@H]6COC)O[C@@H]5COC)O[C@@H]4COC)O[C@@H]3COC [DIMEB] | 100% | .110
2 | OCC1OC(OC2C(CO)OC(OCC3OC4OC5C(CO)OC(OC6C(CO)OC(OC7C(CO)OC(OC8C(CO)OC(OC9C(CO)OC(OC%10C(CO)OC(OC3C(O)C4O)C(O)C%10O)C(O)C9O)C(O)C8O)C(O)C7O)C(O)C6O)C(O)C5O)C(O)C2O)C(O)C(O)C1O (stereo not drawn) [G2] | less than 100%* | .437
3 | COC[C@H]1O[C@@H]2O[C@@H]3[C@@H](OC)[C@@H](OC)[C@@H](O[C@@H]4[C@@H](OC)[C@@H](OC)[C@@H](O[C@@H]5[C@@H](OC)[C@@H](OC)[C@@H](O[C@@H]6[C@@H](OC)[C@@H](OC)[C@@H](O[C@@H]7[C@@H](OC)[C@@H](OC)[C@@H](O[C@@H]1[C@@H](OC)[C@H]2OC)O[C@@H]7COC)O[C@@H]6COC)O[C@@H]5COC)O[C@@H]4COC)O[C@@H]3COC [TRIMEA] | 100% | .520
